In PubChem BioAssay AID624297 (National Center for Advancing Translational Sciences (NCATS), 2012):
Hit rate of the full screen: of about 340,000 compounds, about 6,200 (1.8%) were called active. The shares of active, inactive and inconclusive entries below differ from those in the screen. Calls follow the shape of the dose curve; as a rule, active = well fitted activation curve with a large enough effect; inconclusive = small, poorly fitted or top-dose-only effect; inactive = no such curve, though single readings can be large or run the other way. A potency beside an inconclusive call is a rough fit, not a confirmed value.
Potency is read from the fitted curve at half-maximal effect.

Experiment: A quantitative high throughput screen for small molecules that induce DNA re-replication in SW480 colon adenocarcinoma cells. Also: nearly all actives have a fitted effect of over 55% in size. As to re-replication activation: % of control where 0% means no effect.
Settings: Hoechst DNA content imaging, 48 h; re-replication activation: at 46.1 µM (top of the series) unless noted
Outline: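 DNA re-replication was detected as more nuclei of elevated Hoechst intensity after 48 hr exposure to compound (23 nL pinned per well of 250 cells).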
In the case of `COc1cccc(C(=O)/C=C/Nc2cc(C)ccc2O)c1`, the Potency is reported as active: 18.4 µM. In the case of `Cc1cc2ccccc2n2c(SCC(=O)Nc3ccc(S(=O)(=O)N4CCC(C)CC4)cc3)nnc12`, the Potency is reported as inconclusive: 20.6 µM [activator, partial curve, poor fit]. In the case of `COc1ccc2oc(C(=O)Nc3ccccc3N3CCOCC3)c(C)c2c1`, the Potency is reported as inconclusive: 29.1 µM [activator, partial curve, poor fit]. For `N#Cc1cccc(NC(=O)CSc2ccc3c4c(cccc24)C(=O)c2ccccc2-3)c1`, the Potency was inconclusive: 20.6 µM [activator, single point]. For `C=CCn1c(=N)c(C(=O)NCCCOC)cc2c(=O)n3cccc(C)c3nc21`, the Potency was inconclusive: 9.2 µM [activator, partial curve]. With `Nc1nc2ccc(OC(F)(F)F)cc2s1` the Potency was “inactive”. With `COc1ccc(S(=O)(=O)N2CCN(C(=S)NCCc3ccccc3)CC2)cc1` the Potency was “inactive”. For `CC(C)(C)n1[nH]c2c3c(ccc2c1=O)C(=O)c1ccccc1C3=O`, the Potency was active: 11.6 µM. For `COc1ccc(OCC(O)CNCCOc2ccccc2OC)c(C(C)(C)C)c1` (stereo not drawn), the Potency was “inactive”. With `COc1ccc(-c2csc(N3C(=O)C4C5c6ccccc6C(c6ccccc65)[C@@H]4C3=O)n2)cc1` (stereo partly drawn) the Potency was “inactive”. With `CCOC(=O)[C@@H]1[C@H]2COc3ccc(Br)cc3[C@H]2N2C(=O)N(c3ccc(C)cc3)C(=O)[C@]12C` the Potency was “inactive”. In the case of `CCOC(=O)c1c(-c2ccccc2)csc1NC(=O)/C(C#N)=C/c1ccc(O)c(OC)c1`, the Potency is reported as inconclusive: 23.1 µM [activator, partial curve, poor fit]. With `O=C(NCCCc1ccccc1)C1CC1` the Potency was “inactive”. For `CCc1nc(SCC(=O)Nc2nnc(CC(C)C)s2)n[nH]1`, the Potency was “inactive”. In the case of `O=C(COc1ccc(Cl)cc1)Nc1cccc(S(=O)(=O)NCc2ccco2)c1`, the Potency is reported as “inactive”. In the case of `CCn1c(SCC(=O)Nc2nc3ccc(C)cc3s2)nc2c(c1=O)SC(C)C2` (stereo not drawn), the Potency is reported as inconclusive: 18.4 µM [activator, single point]. In the case of `CCCc1nc([N+](=O)[O-])c(S(=O)(=O)c2ccccc2)n1CC(C)C`, the Potency is reported as inconclusive: 29.1 µM [activator, single point]. In the case of `O=C(NC1CCCCCC1)C1CCN(S(=O)(=O)c2cccc3cccnc23)CC1`, the Potency is reported as “inactive”. With `COc1ccc(N(CC(=O)Nc2cccc(C)c2)S(=O)(=O)c2c(C)noc2C)cc1` the Potency was “inactive”. In the case of `CC(C)(C)OC(=O)C(Cl)(C(=O)OC(C)(C)C)c1ccc2nnnn2n1`, the Potency is reported as inconclusive: 29.1 µM [activator, single point]. For `Cc1ccc(-c2noc(CN3CCC(C(N)=O)CC3)n2)cc1`, the Potency was “inactive”. For `N#C/C(=C\c1ccc(Sc2ccc(Cl)cc2)o1)c1nc2ccccc2[nH]1`, the Potency was inconclusive: 20.6 µM [activator, partial curve, poor fit]. For `CC1CCN(S(=O)(=O)c2cc(C(=O)NC3(C)CCS(=O)(=O)C3)ccc2Br)CC1` (stereo not drawn), the Potency was “inactive”. In the case of `Cc1ccc(-n2nc3ccc(N)cc3n2)cc1`, the Potency is reported as active: 16.4 µM. For `CC(=O)Nc1ccc(/C=C/c2nc3ccccc3[nH]c2=O)cc1`, the Potency was inconclusive: 11.6 µM [activator, single point]. In the case of `CN1CCN(CC#Cc2ccccc2)CC1CCO` (stereo not drawn), the Potency is reported as inconclusive: 16.4 µM [activator, single point]. In the case of `N#C/C(C(=O)Oc1ccccc1)=C1\C=Cc2ccccc2N1`, the Potency is reported as inconclusive: 31.6 µM [activator, partial curve, poor fit]. In the case of `CC(c1ccco1)N(C(=O)c1ccc(Cl)c([N+](=O)[O-])c1)c1ccccn1` (stereo not drawn), the Potency is reported as “inactive”. For `COc1cc(-c2cc(C(F)(F)F)n3ncc(C(=O)O)c3n2)cc(OC)c1OC`, the re-replication activation was inactive: -3.27% [at 9.22 µM]. In the case of `Fc1ccc(COc2ccc3ccccc3c2CNc2nn[nH]n2)cc1`, the Potency is reported as inconclusive: 29.1 µM [activator, single point]. For `CCOC(=O)C1=C(c2ccccc2)N=c2s/c(=C\c3ccc(O)cc3)c(=O)n2C1c1cccs1` (stereo not drawn), the Potency was inconclusive: 20.6 µM [activator, single point]. With `CC[C@]12c3[nH]c4ccccc4c3CCN1C(=O)C(CC(=O)NCCCN(C)C)C[C@@H]2C(=O)N1CCN(C(=O)C2CC2)CC1` (stereo partly drawn) the Potency was inconclusive: 29.1 µM [activator, single point]. With `CC(CN1C(C)CCCC1C)OC(=O)c1ccc(F)cc1` (stereo not drawn) the Potency was “inactive”. For `C=CCn1c(CCNC(=O)c2cccs2)nnc1SCC(=O)c1cccc([N+](=O)[O-])c1`, the Potency was inconclusive: 23.1 µM [activator, single point]. In the case of `C[C@]12c3[nH]c4ccc(Cl)cc4c3CCN1C(=O)[C@@H](CC(=O)NCc1cccc(C(F)(F)F)c1)C[C@@H]2C(=O)N1CCOCC1`, the Potency is reported as inconclusive: 16.4 µM [activator, partial curve, poor fit]. In the case of `Cc1ccnc(NC(=O)c2ccc([N+](=O)[O-])o2)c1`, the Potency is reported as active: 5.8 µM. With `CSc1ccccc1NC(=O)c1cc2c(=O)n3ccccc3nc2s1` the Potency was inconclusive: 18.4 µM [activator, single point]. With `Cc1ccc(CN(Cc2cc3cc4c(cc3[nH]c2=O)OCCO4)Cc2nnnn2Cc2ccco2)cc1` the Potency was inconclusive: 18.4 µM [activator, single point]. With `CNC(=S)N1N=C(c2ccc(Br)cc2)CC1c1ccc(Br)cc1` (stereo not drawn) the Potency was inconclusive: 20.6 µM [activator, single point]. In the case of `COc1ccccc1NC(=O)Nc1ccncc1`, the Potency is reported as inconclusive: 14.6 µM [activator, single point]. For `CC1=C(C(=O)Nc2ccccc2)C(c2ccc(C)cc2)N=C(Nc2nc3ccccc3o2)N1` (stereo not drawn), the Potency was inconclusive: 29.1 µM [activator, single point]. For `C(=C\CSc1ncn[nH]1)/CSc1ncn[nH]1`, the Potency was “inactive”. In the case of `CCC(C)C(CO)NCCCn1cnc(C(=O)Nc2ccc(C)c(C)c2)n1` (stereo not drawn), the Potency is reported as inconclusive: 1.16 µM [activator, single point]. In the case of `CCCCNC(=O)C(CC)(ONc1ccccc1C(F)(F)F)c1ccccc1` (stereo not drawn), the Potency is reported as inconclusive: 32.6 µM [activator, partial curve, poor fit]. For `CCCCOCCOCCOCCCC`, the Potency was inconclusive: 18.4 µM [activator, single point]. For `CC(C)(O)C#Cc1ccc(C(=O)N2CCN(c3ccccc3)CC2)cc1`, the Potency was active: 3.26 µM. For `CCN(c1ccccc1)S(=O)(=O)c1ccc(OC)c(NC(=O)C2CCC2)c1`, the Potency was inconclusive: 14.6 µM [activator, single point]. For `Cc1ccc(Cl)cc1NC(=O)CCNC(=O)N1CC(=O)Nc2ccccc21`, the Potency was inconclusive: 5.17 µM [activator, single point]. In the case of `Cc1cccc(-n2nnc(C(=O)NC3CCCc4ccccc43)c2N)c1` (stereo not drawn), the Potency is reported as inconclusive: 20.6 µM [activator, single point]. With `CCC1=C2CC[C@H]3C(=O)N(c4ccccc4)C(=O)[C@H]3[C@H]2[C@@]2(C)C(=NCc3ccccc3)OC(=O)N2C1=O` the Potency was inconclusive: 29.1 µM [activator, single point]. For `COc1cc(OC)c2c3c(c(C4CCCCC4)nc2c1)CCCC3`, the Potency was inconclusive: 6.51 µM [activator, single point]. For `Cc1nn(S(=O)(=O)N2CCCCC2)c(C)c1Br`, the Potency was inconclusive: 32.6 µM [activator, partial curve, poor fit]. For `COc1cc(OC)c2c(-c3cccc(-c4ccc(N(C)C)cc4)c3)cc(=O)oc2c1`, the Potency was active: 4.11 µM. In the case of `Cn1nc(-c2ccccc2)c2nc3ccccc3nc21`, the Potency is reported as inconclusive: 20.6 µM [activator, partial curve, poor fit]. With `Cc1ccc2nc(N3CCN(S(=O)(=O)c4ccc(C)c(Cl)c4)CC3)c(C#N)cc2c1` the Potency was inconclusive: 20.6 µM [activator, single point]. In the case of `CS(=O)(=O)N1CCN(c2ccccc2NC(=O)c2cccs2)CC1`, the Potency is reported as “inactive”. For `CCC(C)NC(=O)C1CCC(CNS(=O)(=O)c2ccc3c(c2)CC(C)N3C(C)=O)CC1` (stereo not drawn), the Potency was inconclusive: 6.51 µM [activator, single point]. In the case of `Cc1cc(C)c(NC(=O)C2CC(=O)N(c3ccc4c(c3)OCCO4)C2)c(C)c1` (stereo not drawn), the Potency is reported as inconclusive: 25.9 µM [activator, partial curve, poor fit]. In the case of `NC(=O)c1ccsc1NC(=O)c1cccs1`, the Potency is reported as “inactive”. For `COc1ccccc1C(=O)NCCC(=O)N1CCN(c2ccccc2Cl)CC1`, the Potency was inconclusive: 0.206 µM [activator, full curve, poor fit]. With `CC1CCN(C(=O)CSc2nnc3ccccn23)CC1` the Potency was inconclusive: 29.1 µM [activator, single point]. In the case of `Cn1c(=O)c2c(ncn2CC(=O)OCC(=O)Nc2cccc(Cl)c2)n(C)c1=O`, the Potency is reported as inconclusive: 6.51 µM [activator, single point]. In the case of `O=C(Oc1ccc(Br)cc1C(=O)/C=C/c1ccccc1F)c1ccco1`, the Potency is reported as inconclusive: 25.9 µM [activator, single point]. In the case of `COC(=O)c1ccc2c(=O)[nH]c(CCl)nc2c1`, the Potency is reported as inconclusive: 10.3 µM [activator, partial curve, poor fit]. With `COc1ccc(CCNS(=O)(=O)c2ccc(Br)cc2)cc1OC` the Potency was inconclusive: 5.17 µM [activator, full curve, poor fit]. With `COc1ccccc1/C=C/C=N/N1CCN(Cc2ccc(Cl)cc2)CC1` the Potency was “inactive”. For `CCc1cc2c(NCc3ccccc3)nc(C)nc2s1`, the Potency was inconclusive: 14.6 µM [activator, partial curve]. In the case of `Cc1ccc(C2=NS(=O)(=O)N(C)C(C(=O)NC3CCCCC3)=C2)cc1`, the Potency is reported as “inactive”.
